No constants are given. Whether binding was seen depends on the method and setting. Binding seen in cells or lysates may run through a third protein. Some results given as binding are weak or reduced against the parent protein; the word gives no strength. For some of these results: Where a sequence is shown, tags or fusion partners need not be part of it.
T1: YFP-PUB18 (full-length PUB18 fused to YFP) (Arabidopsis) (UniProt Q9XIJ5)
T1 sequence: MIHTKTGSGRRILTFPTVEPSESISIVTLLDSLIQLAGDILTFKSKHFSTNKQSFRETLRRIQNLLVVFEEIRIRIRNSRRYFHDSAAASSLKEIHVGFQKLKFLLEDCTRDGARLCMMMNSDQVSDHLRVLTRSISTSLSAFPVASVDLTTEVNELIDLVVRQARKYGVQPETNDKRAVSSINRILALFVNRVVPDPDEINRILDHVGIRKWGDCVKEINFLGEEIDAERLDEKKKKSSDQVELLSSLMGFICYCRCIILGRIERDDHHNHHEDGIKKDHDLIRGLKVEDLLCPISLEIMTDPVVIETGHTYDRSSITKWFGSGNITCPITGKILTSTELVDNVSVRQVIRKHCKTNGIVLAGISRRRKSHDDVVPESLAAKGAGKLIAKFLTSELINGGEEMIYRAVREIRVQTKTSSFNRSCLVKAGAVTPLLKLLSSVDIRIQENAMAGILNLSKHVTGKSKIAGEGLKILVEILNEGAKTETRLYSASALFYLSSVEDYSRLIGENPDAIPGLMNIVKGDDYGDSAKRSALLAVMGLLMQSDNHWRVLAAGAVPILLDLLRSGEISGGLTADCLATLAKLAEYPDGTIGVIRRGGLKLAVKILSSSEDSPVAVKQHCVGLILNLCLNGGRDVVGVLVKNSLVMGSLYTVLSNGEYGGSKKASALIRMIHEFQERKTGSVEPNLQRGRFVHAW

Amino acid sequences for entries named in this document (tags omitted).
UniProt Q8RWR1: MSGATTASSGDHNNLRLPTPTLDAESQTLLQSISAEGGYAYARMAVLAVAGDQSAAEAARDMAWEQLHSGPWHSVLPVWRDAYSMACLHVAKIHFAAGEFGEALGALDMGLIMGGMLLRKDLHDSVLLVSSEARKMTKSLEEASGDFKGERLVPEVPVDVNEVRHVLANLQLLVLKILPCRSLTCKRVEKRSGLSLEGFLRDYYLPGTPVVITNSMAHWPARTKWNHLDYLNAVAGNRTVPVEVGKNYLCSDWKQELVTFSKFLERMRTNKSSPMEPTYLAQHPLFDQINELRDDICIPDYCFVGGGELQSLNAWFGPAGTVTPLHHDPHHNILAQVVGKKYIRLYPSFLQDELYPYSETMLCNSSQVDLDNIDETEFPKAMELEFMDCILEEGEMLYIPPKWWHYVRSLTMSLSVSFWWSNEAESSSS
UniProt O80742: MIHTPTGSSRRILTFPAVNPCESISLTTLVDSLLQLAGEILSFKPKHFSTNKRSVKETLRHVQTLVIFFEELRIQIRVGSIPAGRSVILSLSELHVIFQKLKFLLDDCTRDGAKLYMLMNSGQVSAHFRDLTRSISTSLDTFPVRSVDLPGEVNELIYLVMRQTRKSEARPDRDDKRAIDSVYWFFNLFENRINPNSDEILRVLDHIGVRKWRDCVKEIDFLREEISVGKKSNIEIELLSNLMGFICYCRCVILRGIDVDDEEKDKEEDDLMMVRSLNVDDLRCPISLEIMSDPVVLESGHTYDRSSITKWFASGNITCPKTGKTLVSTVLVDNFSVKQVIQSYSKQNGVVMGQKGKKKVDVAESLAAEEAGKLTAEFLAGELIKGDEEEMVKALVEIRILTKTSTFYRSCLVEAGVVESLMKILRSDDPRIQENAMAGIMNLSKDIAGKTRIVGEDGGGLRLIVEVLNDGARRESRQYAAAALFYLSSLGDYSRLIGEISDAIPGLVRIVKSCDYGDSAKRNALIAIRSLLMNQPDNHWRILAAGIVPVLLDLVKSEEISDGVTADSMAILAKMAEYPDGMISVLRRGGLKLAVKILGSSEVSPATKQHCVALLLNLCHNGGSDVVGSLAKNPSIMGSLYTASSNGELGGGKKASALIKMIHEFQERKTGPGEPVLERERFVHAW

T2: LHY fused to the N-terminal part of YFP (YFPn) (Arabidopsis) (UniProt Q6R0H1)
T2 sequence: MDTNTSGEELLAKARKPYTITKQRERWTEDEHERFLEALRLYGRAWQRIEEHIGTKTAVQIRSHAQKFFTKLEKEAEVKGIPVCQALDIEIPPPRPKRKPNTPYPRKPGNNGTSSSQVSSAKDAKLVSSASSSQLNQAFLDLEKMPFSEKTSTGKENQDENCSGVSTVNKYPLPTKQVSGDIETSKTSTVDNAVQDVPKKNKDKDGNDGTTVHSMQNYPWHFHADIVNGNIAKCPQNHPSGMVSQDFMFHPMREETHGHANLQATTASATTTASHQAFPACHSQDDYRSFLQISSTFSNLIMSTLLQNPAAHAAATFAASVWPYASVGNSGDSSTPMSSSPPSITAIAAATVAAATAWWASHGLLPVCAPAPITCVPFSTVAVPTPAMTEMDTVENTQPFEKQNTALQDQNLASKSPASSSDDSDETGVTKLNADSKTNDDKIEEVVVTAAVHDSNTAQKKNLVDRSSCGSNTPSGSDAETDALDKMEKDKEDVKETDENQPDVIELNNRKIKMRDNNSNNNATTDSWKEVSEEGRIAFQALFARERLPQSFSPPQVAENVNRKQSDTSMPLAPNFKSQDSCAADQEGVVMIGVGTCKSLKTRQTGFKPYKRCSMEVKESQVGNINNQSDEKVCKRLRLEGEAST

T3: CK2 fused to the N-terminal part of YFP (YFPn) (Arabidopsis) (UniProt Q08466)
T3 sequence: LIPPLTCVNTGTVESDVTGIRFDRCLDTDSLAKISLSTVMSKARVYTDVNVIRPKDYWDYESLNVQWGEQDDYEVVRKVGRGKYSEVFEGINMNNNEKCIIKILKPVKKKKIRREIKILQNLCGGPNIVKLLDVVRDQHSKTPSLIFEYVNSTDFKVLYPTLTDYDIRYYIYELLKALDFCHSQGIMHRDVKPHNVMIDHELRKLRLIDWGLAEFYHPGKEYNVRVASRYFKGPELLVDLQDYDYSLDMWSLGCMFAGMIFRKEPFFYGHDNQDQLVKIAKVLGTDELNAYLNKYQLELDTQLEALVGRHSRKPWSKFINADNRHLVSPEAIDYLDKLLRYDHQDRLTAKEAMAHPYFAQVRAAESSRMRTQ

T4: FLAG-LHY (Arabidopsis) (UniProt Q6R0H1)
T4 sequence: T2 sequence

B1: YFP-PUB18 (full-length PUB18 fused to YFP) (protein, UniProt Q9XIJ5 1-697)
chain: T1 sequence

Tests used:
[1] = target: T1, YFP-PUB18 (full-length PUB18 fused to YFP) (Arabidopsis); test: co-IP
[2] = target: JMJD5 fused to the N-terminal part of YFP (YFPn) (Arabidopsis) (UniProt Q8RWR1); test: split reporter
[3] = target: T2, LHY fused to the N-terminal part of YFP (YFPn) (Arabidopsis); test: split reporter
[4] = target: T3, CK2 fused to the N-terminal part of YFP (YFPn) (Arabidopsis); test: split reporter
FLAG-LHY (Arabidopsis) = target: T4, FLAG-LHY (Arabidopsis); test: co-IP

Row | Molecule | binding [1] | binding [2] | binding [3] | binding [4] | binding (FLAG-LHY (Arabidopsis))
1 | FLAG-JMJD5 (from UniProt Q8RWR1 1-429) | binds | – | – | – | –
2 | full-length PUB18 (PUB18FL) fused to the C-terminal part of YFP (YFPc) (from UniProt Q9XIJ5 1-697) | – | binds | binds | no binding | –
3 | full-length PUB19 fused to the C-terminal part of YFP (YFPc) (from UniProt O80742 1-686) | – | no binding | no binding | – | –
4 | B1 | – | – | – | – | binds

Source: article doi:10.1101/2025.08.31.673341
